Some entries share one result that the patent states for a list of compounds.
Experiments:
[1] = tested on: Wheat Leaf Blotch (Septoria tritici); assay: Test Example 2: preventing infection by wheat leaf blotch, foliage application; type: in vivo; conditions: 500 ppm, inoculation two days later, wheat (Apogee), 3 days high humidity then 14 to 18 days illumination
[2] = tested on: Cucumber Downy Mildew (Pseudoperonospora cubensis); assay: Test Example 15: treating cucumber downy mildew, foliage application; conditions: 500 ppm, foliage application 1 day after inoculation (curative), cucumber (Sagami-Hanjiro), 5 days green house then 1 day high humidity

| Structure (SMILES) | affected areas of treated plants relative to affected areas of untreated plants [1] [%] | affected areas of treated plants relative to affected areas of untreated plants [2] [%] |
| --- | --- | --- |
| Cc1ccc(C(=O)NCc2cccc(Oc3ccc(F)cc3)c2)c(N)n1 [compound 298, N-[3-(4-fluorophenyloxy)phenyl]methyl-2-amino-6-methylnicotinic acid amide] | ≤ 30 | ≤ 30 |
| Cc1ccc(C(=O)NCc2cccc(Oc3ccc(Cl)cc3)c2)c(N)n1 [compound 300, N-[3-(4-chlorophenyloxy)phenyl]methyl-2-amino-6-methylnicotinic acid amide] | ≤ 30 | ≤ 30 |
| Cc1ccc(C(=O)NCc2cccc(Oc3ccc(C(F)(F)F)cc3)c2)c(N)n1 [compound 305, N-[3-(4-trifluoromethylphenyloxy)phenyl]methyl-2-amino-6-methylnicotinic acid amide] | ≤ 30 | ≤ 30 |
| Cc1ccc(C(=O)NCc2cccc(Oc3ccc(OC(F)(F)F)cc3)c2)c(N)n1 [compound 309, N-[3-(4-trifluoromethoxyphenyloxy)phenyl]methyl-2-amino-6-methylnicotinic acid amide] | ≤ 30 | ≤ 30 |
| Cc1ccc(C(=O)NCc2ccc(Oc3ccccc3F)cc2)c(N)n1 [compound 318, N-[4-(2-fluorophenyloxy)phenyl]methyl-2-amino-6-methylnicotinic acid amide] | – | ≤ 30 |
| Cc1ccc(C(=O)NCc2ccc(Oc3cccc(F)c3)cc2)c(N)n1 [compound 319, N-[4-(3-fluorophenyloxy)phenyl]methyl-2-amino-6-methylnicotinic acid amide] | – | ≤ 30 |
| Cc1ccc(C(=O)NCc2ccc(Oc3cccc(C(F)(F)F)c3)cc2)c(N)n1 [compound 320, N-[4-(3-trifluoromethylphenyloxy)phenyl]methyl-2-amino-6-methylnicotinic acid amide] | – | ≤ 30 |
| COc1ccc(Oc2ccc(CNC(=O)c3ccc(C)nc3N)cc2)cc1 [compound 321, N-[4-(4-methoxyphenyloxy)phenyl]methyl-2-amino-6-methylnicotinic acid amide] | – | ≤ 30 |
| Cc1ccc(C(=O)NCc2ccc(Oc3ccc(OC(F)(F)F)cc3)cc2)c(N)n1 [compound 323, N-[4-(4-trifluoromethoxyphenyloxy)phenyl]methyl-2-amino-6-methylnicotinic acid amide] | – | ≤ 30 |
| CCOc1ccc(C(=O)NCc2ccc(Oc3ccccc3)cc2)c(N)n1 [compound 343, N-(4-phenoxyphenyl)methyl-2-amino-6-ethoxynicotinic acid amide] | ≤ 30 | – |
| COc1cccc(CNC(=O)c2ccc(F)nc2N)c1F [compound 346, N-[3-(2-fluoro-3-methoxy)phenyl]methyl-2-amino-6-fluoronicotinic acid amide] | – | ≤ 30 |
| C#CCCCOc1cccc(CNC(=O)c2ccc(F)nc2N)c1F [compound 347, N-{3-[2-fluoro-3-(4-pentynyloxy)]phenyl}methyl-2-amino-6-fluoronicotinic acid amide] | – | ≤ 30 |

— patent publication US20110009454A1, “COMPOSITION FOR AGRICULTURAL USE FOR CONTROLLING OR PREVENTING PLANT DISEASES CAUSED BY PLANT PATHOGENS” (SUMITOMO CHEMICAL COMPANY, LIMITED, priority 2008, published 2011)
